According to the supplement of paper PMC10849652:
The other results are listed elsewhere or left out.

Amino acid sequences for entries named in this document (tags omitted). A change or cut given only in a name is not applied to a line headed by its entry.
UniProt Q8WW01: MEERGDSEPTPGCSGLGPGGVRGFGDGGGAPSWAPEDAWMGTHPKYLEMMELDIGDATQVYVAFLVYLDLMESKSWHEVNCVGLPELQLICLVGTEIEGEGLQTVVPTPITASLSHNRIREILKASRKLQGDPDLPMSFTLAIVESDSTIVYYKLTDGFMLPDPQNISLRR
UniProt Q8NFQ8: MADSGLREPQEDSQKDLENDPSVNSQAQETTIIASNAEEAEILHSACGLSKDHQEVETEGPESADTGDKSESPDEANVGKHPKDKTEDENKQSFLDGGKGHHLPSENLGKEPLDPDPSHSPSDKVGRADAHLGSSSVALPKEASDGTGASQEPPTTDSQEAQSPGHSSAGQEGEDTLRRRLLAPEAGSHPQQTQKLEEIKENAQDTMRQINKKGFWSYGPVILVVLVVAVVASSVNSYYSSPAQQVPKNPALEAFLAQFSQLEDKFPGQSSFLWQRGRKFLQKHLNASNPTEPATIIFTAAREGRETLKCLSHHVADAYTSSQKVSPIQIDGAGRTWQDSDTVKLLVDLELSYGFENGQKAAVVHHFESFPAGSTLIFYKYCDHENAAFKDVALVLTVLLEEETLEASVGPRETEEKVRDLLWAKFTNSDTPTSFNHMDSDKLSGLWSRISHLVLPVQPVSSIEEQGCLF
UniProt Q16890: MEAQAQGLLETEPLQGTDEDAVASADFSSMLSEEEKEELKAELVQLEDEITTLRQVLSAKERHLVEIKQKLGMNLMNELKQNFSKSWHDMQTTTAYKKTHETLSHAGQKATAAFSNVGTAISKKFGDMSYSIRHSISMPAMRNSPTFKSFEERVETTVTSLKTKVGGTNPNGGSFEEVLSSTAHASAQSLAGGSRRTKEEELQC
UniProt Q7Z2T5: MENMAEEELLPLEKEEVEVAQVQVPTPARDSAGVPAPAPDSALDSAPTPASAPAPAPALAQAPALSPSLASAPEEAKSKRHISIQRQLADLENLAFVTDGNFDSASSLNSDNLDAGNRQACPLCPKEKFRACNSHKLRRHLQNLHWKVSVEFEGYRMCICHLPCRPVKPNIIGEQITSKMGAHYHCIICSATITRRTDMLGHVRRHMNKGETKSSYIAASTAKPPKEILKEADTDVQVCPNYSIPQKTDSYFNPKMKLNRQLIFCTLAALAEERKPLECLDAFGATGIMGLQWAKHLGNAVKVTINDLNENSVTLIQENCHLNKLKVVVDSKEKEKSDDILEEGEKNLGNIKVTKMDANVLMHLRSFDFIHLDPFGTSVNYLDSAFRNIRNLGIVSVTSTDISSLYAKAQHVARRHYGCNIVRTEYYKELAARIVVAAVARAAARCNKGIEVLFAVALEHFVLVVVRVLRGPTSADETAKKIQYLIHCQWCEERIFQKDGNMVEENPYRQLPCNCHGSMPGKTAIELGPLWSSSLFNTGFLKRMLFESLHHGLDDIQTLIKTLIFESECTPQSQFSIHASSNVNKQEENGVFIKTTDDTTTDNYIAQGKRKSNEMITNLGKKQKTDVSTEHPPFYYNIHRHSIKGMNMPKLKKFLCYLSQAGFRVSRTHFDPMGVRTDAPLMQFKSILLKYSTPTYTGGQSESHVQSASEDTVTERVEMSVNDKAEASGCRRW
UniProt Q9Y4K3: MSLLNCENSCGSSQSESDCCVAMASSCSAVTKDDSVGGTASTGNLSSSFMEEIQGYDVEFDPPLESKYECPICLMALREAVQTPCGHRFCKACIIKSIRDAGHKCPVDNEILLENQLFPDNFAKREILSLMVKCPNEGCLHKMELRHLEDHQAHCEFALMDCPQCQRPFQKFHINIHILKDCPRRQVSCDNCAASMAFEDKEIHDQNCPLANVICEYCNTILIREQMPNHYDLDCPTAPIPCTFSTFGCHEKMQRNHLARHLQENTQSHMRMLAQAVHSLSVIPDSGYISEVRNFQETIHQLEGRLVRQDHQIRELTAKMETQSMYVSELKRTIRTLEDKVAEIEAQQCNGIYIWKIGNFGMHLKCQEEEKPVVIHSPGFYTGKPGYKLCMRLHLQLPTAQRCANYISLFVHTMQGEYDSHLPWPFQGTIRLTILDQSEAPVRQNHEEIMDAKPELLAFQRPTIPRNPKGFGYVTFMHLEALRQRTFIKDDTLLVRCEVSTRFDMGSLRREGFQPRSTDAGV
UniProt Q5JU69: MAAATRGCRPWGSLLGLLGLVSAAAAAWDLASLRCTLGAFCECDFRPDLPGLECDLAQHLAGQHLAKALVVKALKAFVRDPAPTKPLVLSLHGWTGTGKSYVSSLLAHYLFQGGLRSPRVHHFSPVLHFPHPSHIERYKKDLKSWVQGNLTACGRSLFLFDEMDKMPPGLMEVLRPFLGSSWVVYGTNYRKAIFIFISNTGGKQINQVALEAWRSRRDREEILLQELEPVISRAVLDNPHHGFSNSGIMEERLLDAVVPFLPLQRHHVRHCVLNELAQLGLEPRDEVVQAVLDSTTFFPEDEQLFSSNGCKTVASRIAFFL
UniProt Q15785: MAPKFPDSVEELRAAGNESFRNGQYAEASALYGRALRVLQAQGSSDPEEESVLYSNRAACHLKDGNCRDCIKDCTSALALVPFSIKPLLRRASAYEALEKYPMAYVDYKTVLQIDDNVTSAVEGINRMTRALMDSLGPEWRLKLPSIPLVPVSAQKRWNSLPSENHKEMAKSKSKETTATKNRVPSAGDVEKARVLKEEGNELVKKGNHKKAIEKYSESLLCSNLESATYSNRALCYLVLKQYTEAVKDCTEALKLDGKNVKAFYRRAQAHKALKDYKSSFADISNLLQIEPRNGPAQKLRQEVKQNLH
UniProt Q9NUP7: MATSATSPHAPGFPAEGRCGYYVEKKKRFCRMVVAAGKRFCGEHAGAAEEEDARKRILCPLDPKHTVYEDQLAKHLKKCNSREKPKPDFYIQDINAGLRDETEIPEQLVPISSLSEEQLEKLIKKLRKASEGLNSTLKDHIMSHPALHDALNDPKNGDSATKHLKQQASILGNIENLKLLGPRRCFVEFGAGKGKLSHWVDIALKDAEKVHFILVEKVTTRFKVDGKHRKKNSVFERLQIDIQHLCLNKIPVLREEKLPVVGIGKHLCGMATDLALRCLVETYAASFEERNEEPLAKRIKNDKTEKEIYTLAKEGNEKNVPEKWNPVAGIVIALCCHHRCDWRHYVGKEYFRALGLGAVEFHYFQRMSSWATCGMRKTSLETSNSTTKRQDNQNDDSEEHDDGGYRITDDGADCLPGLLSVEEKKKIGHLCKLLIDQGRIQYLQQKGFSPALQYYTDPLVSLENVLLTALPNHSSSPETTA
UniProt Q9Y5S1: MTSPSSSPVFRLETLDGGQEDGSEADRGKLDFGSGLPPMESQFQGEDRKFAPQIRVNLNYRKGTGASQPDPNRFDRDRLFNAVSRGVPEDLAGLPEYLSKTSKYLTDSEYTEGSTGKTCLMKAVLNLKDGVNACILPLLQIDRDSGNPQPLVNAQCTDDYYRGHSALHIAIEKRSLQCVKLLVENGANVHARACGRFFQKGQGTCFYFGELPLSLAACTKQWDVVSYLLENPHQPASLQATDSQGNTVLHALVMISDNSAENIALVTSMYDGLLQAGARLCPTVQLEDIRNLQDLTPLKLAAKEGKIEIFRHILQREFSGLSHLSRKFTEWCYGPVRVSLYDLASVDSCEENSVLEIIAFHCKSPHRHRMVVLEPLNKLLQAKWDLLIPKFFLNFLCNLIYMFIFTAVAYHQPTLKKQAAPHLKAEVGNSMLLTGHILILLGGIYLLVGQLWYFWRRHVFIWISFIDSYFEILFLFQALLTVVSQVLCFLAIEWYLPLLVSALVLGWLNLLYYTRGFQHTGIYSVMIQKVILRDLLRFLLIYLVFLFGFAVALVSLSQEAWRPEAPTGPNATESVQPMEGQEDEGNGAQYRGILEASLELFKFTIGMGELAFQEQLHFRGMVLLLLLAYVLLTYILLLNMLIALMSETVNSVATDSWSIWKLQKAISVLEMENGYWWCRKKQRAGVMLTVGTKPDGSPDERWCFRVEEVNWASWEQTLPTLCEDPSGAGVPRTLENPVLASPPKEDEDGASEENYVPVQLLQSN
UniProt O14657: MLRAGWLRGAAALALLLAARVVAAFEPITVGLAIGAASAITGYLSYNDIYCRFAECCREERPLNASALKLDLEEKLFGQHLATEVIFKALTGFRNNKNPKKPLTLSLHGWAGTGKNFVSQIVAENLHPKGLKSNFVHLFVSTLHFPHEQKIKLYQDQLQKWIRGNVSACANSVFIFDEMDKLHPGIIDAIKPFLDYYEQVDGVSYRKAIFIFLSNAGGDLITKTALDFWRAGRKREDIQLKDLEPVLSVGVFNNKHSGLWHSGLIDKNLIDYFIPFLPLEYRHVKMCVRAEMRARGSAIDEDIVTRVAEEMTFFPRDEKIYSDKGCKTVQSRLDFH
UniProt Q8WVT3: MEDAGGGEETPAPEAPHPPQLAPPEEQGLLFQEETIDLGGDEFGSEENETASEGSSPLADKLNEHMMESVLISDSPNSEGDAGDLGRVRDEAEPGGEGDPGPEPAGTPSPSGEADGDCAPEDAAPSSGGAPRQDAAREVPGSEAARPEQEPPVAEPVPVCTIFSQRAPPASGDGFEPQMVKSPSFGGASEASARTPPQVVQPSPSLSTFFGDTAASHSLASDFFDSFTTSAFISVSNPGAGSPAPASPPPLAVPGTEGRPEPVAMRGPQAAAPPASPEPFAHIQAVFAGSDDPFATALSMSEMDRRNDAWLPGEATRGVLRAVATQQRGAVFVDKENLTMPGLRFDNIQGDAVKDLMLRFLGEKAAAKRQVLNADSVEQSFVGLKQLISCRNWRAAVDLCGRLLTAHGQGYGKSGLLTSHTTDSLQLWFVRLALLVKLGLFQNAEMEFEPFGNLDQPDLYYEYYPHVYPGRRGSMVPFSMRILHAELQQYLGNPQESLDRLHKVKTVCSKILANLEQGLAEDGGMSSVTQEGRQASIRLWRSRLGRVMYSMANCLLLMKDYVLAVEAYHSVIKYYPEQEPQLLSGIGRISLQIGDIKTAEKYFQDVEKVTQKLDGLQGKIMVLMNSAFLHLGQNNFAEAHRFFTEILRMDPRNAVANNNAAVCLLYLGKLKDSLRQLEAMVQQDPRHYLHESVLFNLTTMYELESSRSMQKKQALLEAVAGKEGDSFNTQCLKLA
UniProt Q969M1: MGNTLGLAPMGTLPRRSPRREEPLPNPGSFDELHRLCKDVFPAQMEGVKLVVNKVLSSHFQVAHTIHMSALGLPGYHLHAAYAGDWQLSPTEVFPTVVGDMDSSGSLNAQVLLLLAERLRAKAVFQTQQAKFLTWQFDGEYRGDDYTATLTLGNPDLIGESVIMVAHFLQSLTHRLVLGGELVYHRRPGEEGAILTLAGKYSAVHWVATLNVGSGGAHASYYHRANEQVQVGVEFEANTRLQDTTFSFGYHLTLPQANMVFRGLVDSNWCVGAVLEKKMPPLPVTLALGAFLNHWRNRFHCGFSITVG
UniProt Q9UJA5: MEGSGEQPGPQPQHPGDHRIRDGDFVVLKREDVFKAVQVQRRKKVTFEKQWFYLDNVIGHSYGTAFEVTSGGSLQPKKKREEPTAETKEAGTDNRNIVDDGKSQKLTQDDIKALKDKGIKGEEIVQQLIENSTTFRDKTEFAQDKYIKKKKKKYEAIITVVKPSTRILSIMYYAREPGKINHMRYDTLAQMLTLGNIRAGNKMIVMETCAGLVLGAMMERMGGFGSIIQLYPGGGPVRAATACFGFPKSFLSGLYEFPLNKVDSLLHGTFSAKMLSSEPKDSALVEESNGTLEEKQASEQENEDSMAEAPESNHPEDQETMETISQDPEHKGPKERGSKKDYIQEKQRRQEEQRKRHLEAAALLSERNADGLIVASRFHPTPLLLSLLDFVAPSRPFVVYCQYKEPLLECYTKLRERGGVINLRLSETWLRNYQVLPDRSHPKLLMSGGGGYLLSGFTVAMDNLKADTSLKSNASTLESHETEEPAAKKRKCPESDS
UniProt Q8WWH5: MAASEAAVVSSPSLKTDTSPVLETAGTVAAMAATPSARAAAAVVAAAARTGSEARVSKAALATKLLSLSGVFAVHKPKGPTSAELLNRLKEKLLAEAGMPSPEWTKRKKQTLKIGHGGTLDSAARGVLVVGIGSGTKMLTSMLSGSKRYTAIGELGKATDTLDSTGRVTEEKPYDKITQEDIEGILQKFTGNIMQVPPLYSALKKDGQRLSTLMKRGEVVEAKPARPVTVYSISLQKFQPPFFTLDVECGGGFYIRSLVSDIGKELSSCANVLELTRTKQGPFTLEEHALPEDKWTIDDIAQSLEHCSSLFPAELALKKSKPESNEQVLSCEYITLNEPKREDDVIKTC

Key:
Assay in all cases: log2 fold change, soluble protein after heating vs DMSO (PISA); higher = thermal stabilisation; K562 cells, 10 uM, 30 min; active = over 0.2 and 3.5 SD of the protein, either way, in both replicates (recomputed)
[1] = compound: COC1=CC=C(C=C1)CN2C=CC3=C2C=C(C=C3)C(=O)NO
Method in brief: (§1)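 Soluble protein was quantified by TMTpro 16plex LC-MS/MS after channel sums were equalised. It was obtained as the supernatant after 21,000xg for 90 min from pooled aliquots of K562 cells (2×10^6 cells/mL, 10 μM compound, 30 min) heated for 3 min across 48°C-58°C and extracted in PBS with 0.5% NP-40 at 4°C. Thermal stability values are relative to control samples and come from duplicates. They are given as log2 fold changes.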

[2] = compound: CON(C)C(=O)N1N=C(c2cc(F)ccc2F)S[C@@]1(CCCN)c1ccccc1 [filanesib]
Method in brief: as §1

[3] = compound: CO[C@H]1C[C@@H]2CC[C@@H](C)[C@@](O)(O2)C(=O)C(=O)N2CCCC[C@H]2C(=O)O[C@H]([C@H](C)C[C@@H]2CC[C@H](n3cnnn3)[C@H](OC)C2)CC(=O)[C@H](C)/C=C(\C)[C@@H](O)[C@@H](OC)C(=O)[C@H](C)C[C@H](C)/C=C/C=C/C=C/1C [zotarolimus]
Method in brief: as §1

[4] = compound: COc1cc(C(=O)O)ccc1NC(=O)[C@@H]1N[C@@H](CC(C)(C)C)[C@](C#N)(c2ccc(Cl)cc2F)[C@H]1c1cccc(Cl)c1F [idasanutlin]
Method in brief: as §1

[5] = compound: COc1cc(Nc2ncc3c(n2)-c2ccc(Cl)cc2C(c2c(F)cccc2OC)=NC3)ccc1C(=O)O [alisertib]
Method in brief: as §1

[6] = compound: COc1cc2nc(-c3cc(F)ccc3O)nc(N[C@@H]3CNC[C@H]3C(C)(C)O)c2cc1OC
Method in brief: as §1

[7] = compound: COc1cc2ncnc(Nc3ccc(F)c(Cl)c3)c2cc1OCCCN1CCOCC1 [gefitinib]
Method in brief: as §1

[8] = compound: COc1cccc2cc(-c3nc([C@H]4CC[C@H](C(=O)O)CC4)n4ncnc(N)c34)[nH]c12
Method in brief: as §1

[9] = compound: CS(=O)(=O)CCNCc1ccc(-c2ccc3ncnc(Nc4ccc(OCc5cccc(F)c5)c(Cl)c4)c3c2)o1 [lapatinib]
Method in brief: as §1

[10] = compound: CS(=O)(=O)N1CCN(Cc2cc3nc(-c4cccc5[nH]ncc45)nc(N4CCOCC4)c3s2)CC1 [pictilisib]
Method in brief: as §1

[11] = compound: CS(=O)(=O)c1ccc(-c2cnc(N)c(C(=O)Nc3ccccc3)n2)cc1
Method in brief: as §1

[12] = compound: C[C@@H](Oc1cc(-c2cnn(C3CCNCC3)c2)cnc1N)c1c(Cl)ccc(F)c1Cl [crizotinib]
Method in brief: as §1

[13] = compound: C[C@@H]1COCCN1C2=NC(=NC(=C2)C3(CC3)S(=O)(=O)C)C4=C5C=CNC5=CC=C4
Method in brief: as §1

[14] = compound: C[C@H](C1=CC=C(C=C1)C(=O)NC2=C3C=CNC3=NC=C2)N
Method in brief: as §1

[15] = compound: C[C@H](Nc1ncnc2nc[nH]c12)c1cc2cccc(Cl)c2c(=O)n1-c1ccccc1 [duvelisib]
Method in brief: as §1

[16] = compound: Cc1cc(Nc2cc(CN3CCOCC3)c3nc(C)c(Cc4ccc(Cl)cc4F)n3n2)n[nH]1 [gandotinib]
Method in brief: as §1

[17] = compound: Cc1cc(Nc2cc(N3CCN(C)CC3)nc(Sc3ccc(NC(=O)C4CC4)cc3)n2)n[nH]1 [tozasertib]
Method in brief: as §1

[18] = compound: Cc1cc(SCc2sc(-c3ccc(C(F)(F)F)cc3)nc2C)ccc1OCC(=O)O
Method in brief: as §1

[19] = compound: Cc1ccc(-n2nc(C(C)(C)C)cc2NC(=O)Nc2ccc(OCCN3CCOCC3)c3ccccc23)cc1 [doramapimod]
Method in brief: as §1

[20] = compound: Cc1ccc(C(=O)N(CCCN)[C@@H](c2nc3cc(Cl)ccc3c(=O)n2Cc2ccccc2)C(C)C)cc1 [ispinesib]
Method in brief: as §1

Measured: log2 fold change

TSEN15 (UniProt Q8WW01)
inactive: [1] -0.062 | [2] 0.04 | [3] 0.059 | [4] 0.018 | [5] -0.005 | [6] 0.045 | [7] 0.021 | [8] 0.018 | [9] 0.011 | [10] -0.04 | [11] 0.1 | [12] 0.005 | [13] -0.009 | [14] -0.059 | [15] 0.072 | [16] 0.025 | [17] 0.023 | [18] 0.067 | [19] 0.097 | [20] -0.02

TOR1AIP2 (UniProt Q8NFQ8)
inactive: [1] -0.063 | [2] 0.005 | [3] -0.011 | [4] -0.014 | [5] -0.058 | [6] -0.014 | [7] -0.012 | [8] 0.006 | [9] 0.046 | [10] 0.022 | [11] 0.03 | [12] 0.099 | [13] 0.022 | [14] 0.135 | [15] 0.011 | [16] -0.002 | [17] 0.023 | [18] 0.04 | [19] 0.001 | [20] 0

TPD52L1 (UniProt Q16890)
inactive: [1] -0.041 | [2] 0.007 | [3] -0.015 | [4] -0.068 | [5] 0.015 | [6] -0.044 | [7] -0.04 | [8] 0.032 | [9] 0.011 | [10] 0.031 | [11] 0.023 | [12] -0.011 | [13] 0.024 | [14] -0.086 | [15] -0.007 | [16] 0.012 | [17] 0.044 | [18] 0.003 | [19] -0.054 | [20] 0.003

TPRKB (UniProt Q9Y3C4)
inactive: [1] -0.001 | [2] 0.003 | [3] -0.066 | [4] -0.046 | [5] -0.019 | [6] -0.008 | [7] 0.014 | [8] 0.06 | [9] -0.078 | [10] -0.028 | [11] 0.027 | [12] 0.116 | [13] 0.048 | [14] -0.051 | [15] 0.015 | [16] 0 | [17] 0.027 | [18] 0.041 | [19] -0.016 | [20] 0.034

TRMT1L (UniProt Q7Z2T5)
inactive: [1] -0.054 | [2] 0.377 | [3] 0.064 | [4] 0.204 | [5] -0.098 | [6] 0.004 | [7] -0.097 | [8] -0.174 | [9] 0.142 | [10] -0.138 | [11] -0.06 | [12] 0.032 | [13] -0.534 | [14] 0.424 | [15] -0.232 | [16] 0.275 | [17] 0.003 | [18] 0.002 | [19] 0.306 | [20] -0.161

TRAF6 (UniProt Q9Y4K3)
inactive: [1] -0.041 | [2] 0.019 | [3] 0.055 | [4] -0.041 | [5] -0.037 | [6] 0.102 | [7] 0.056 | [8] -0.025 | [9] -0.016 | [10] -0.021 | [11] 0.002 | [12] 0.013 | [13] -0.024 | [14] -0.026 | [15] -0.038 | [16] -0.08 | [17] -0.021 | [18] 0.047 | [19] 0.033 | [20] 0.012

TOR2A (UniProt Q5JU69)
inactive: [1] -0.003 | [2] -0.123 | [3] 0.091 | [4] 0.076 | [5] -0.117 | [6] 0.083 | [7] -0.011 | [8] 0.114 | [9] 0.023 | [10] -0.035 | [11] 0.145 | [12] 0.042 | [13] 0.036 | [14] 0.053 | [15] 0.056 | [16] 0.168 | [17] 0.024 | [18] -0.179 | [19] 0.039 | [20] 0.052

TOMM34 (UniProt Q15785)
inactive: [1] 0.014 | [2] -0.007 | [3] -0.013 | [4] -0.002 | [5] -0.008 | [6] 0.063 | [7] 0.011 | [8] -0.04 | [9] -0.052 | [10] 0.169 | [11] 0.065 | [12] -0.121 | [13] 0.009 | [14] 0.16 | [15] -0.085 | [16] -0.024 | [17] 0.039 | [18] 0.102 | [19] 0.011 | [20] -0.131

TRMT13 (UniProt Q9NUP7)
inactive: [1] -0.022 | [2] -0.035 | [3] 0.051 | [4] -0.061 | [5] 0.032 | [6] 0.031 | [7] -0.015 | [8] -0.036 | [9] 0.036 | [10] 0.054 | [11] -0.039 | [12] 0.038 | [13] -0.045 | [14] -0.066 | [15] 0.028 | [16] -0.201 | [17] 0.03 | [18] 0.03 | [19] 0.015 | [20] 0.015

TRPV2 (UniProt Q9Y5S1)
inactive: [1] -0.034 | [2] 0.007 | [3] -0.024 | [4] -0.039 | [5] -0.029 | [6] 0.083 | [7] 0.031 | [8] 0.052 | [9] 0.026 | [10] -0.023 | [11] 0.01 | [12] 0.055 | [13] 0.071 | [14] -0.052 | [15] 0.05 | [16] -0.129 | [17] 0.011 | [18] 0.009 | [19] 0.025 | [20] 0.135

TOR1B (UniProt O14657)
inactive: [1] -0.018 | [2] 0.011 | [3] -0.008 | [4] -0.047 | [5] -0.049 | [6] -0.012 | [7] 0.009 | [8] 0.052 | [9] 0.002 | [10] -0.005 | [11] -0.007 | [12] 0.027 | [13] -0.013 | [14] 0.021 | [15] -0.086 | [16] 0.058 | [17] 0.012 | [18] 0.01 | [19] 0.017 | [20] -0.01

TRAPPC12 (UniProt Q8WVT3)
inactive: [1] 0.032 | [2] 0.05 | [3] 0.056 | [4] 0.031 | [5] 0.058 | [6] 0.004 | [7] 0.045 | [8] -0.072 | [9] 0.027 | [10] -0.002 | [11] -0.002 | [12] -0.03 | [13] -0.021 | [14] 0.071 | [15] 0.017 | [16] -0.124 | [17] 0.027 | [18] 0.039 | [19] 0.02 | [20] -0.075

Copied from the listing (2 entries):
TOR1B (UniProt O14657)
inactive: [1] -0.018 | [2] 0.011 | [3] -0.008 | [4] -0.047 | [5] -0.049 | [6] -0.012 | [7] 0.009 | [8] 0.052 | [9] 0.002 | [10] -0.005 | [11] -0.007 | [12] 0.027 | [13] -0.013 | [14] 0.021 | [15] -0.086 | [16] 0.058 | [17] 0.012 | [18] 0.01 | [19] 0.017 | [20] -0.01

TRAPPC12 (UniProt Q8WVT3)
inactive: [1] 0.032 | [2] 0.05 | [3] 0.056 | [4] 0.031 | [5] 0.058 | [6] 0.004 | [7] 0.045 | [8] -0.072 | [9] 0.027 | [10] -0.002 | [11] -0.002 | [12] -0.03 | [13] -0.021 | [14] 0.071 | [15] 0.017 | [16] -0.124 | [17] 0.027 | [18] 0.039 | [19] 0.02 | [20] -0.075

Additional records.

TRMT61B (UniProt Q9BVS5)
inactive: [1] -0.007 | [2] 0.09 | [3] -0.139 | [4] 0.027 | [5] -0.08 | [6] -0.057 | [7] 0.026 | [8] -0.022 | [9] 0.039 | [10] -0.065 | [11] -0.037 | [12] 0.033 | [13] -0.119 | [14] 0.129 | [15] 0.018 | [16] 0.094 | [17] -0.046 | [18] -0.009 | [19] 0.05 | [20] -0.072

TOMM40L (UniProt Q969M1)
inactive: [1] -0.07 | [2] 0.004 | [3] -0.015 | [4] -0.074 | [5] 0.079 | [6] 0.008 | [7] 0.002 | [8] 0.079 | [9] -0.066 | [10] 0.001 | [11] -0.063 | [12] 0.003 | [13] 0.072 | [14] -0.105 | [15] 0.046 | [16] -0.149 | [17] -0.031 | [18] -0.041 | [19] -0.003 | [20] -0.01

TRMT6 (UniProt Q9UJA5)
inactive: [1] -0.009 | [2] 0.18 | [3] 0 | [4] 0.102 | [5] -0.078 | [6] -0.161 | [7] 0.009 | [8] -0.079 | [9] 0.128 | [10] -0.047 | [11] -0.052 | [12] -0.053 | [13] -0.164 | [14] 0.326 | [15] -0.043 | [16] 0.111 | [17] -0.017 | [18] -0.019 | [19] 0.113 | [20] -0.221

TRUB1 (UniProt Q8WWH5)
inactive: [1] 0.087 | [2] 0.09 | [3] 0.033 | [4] -0.005 | [5] -0.066 | [6] -0.022 | [7] 0.02 | [8] 0.071 | [9] 0.045 | [10] -0.024 | [11] -0.009 | [12] 0.102 | [13] 0.028 | [14] -0.039 | [15] 0.003 | [16] -0.129 | [17] 0.014 | [18] -0.047 | [19] -0.027 | [20] 0.01
